Assay results published in PMC6459876.
Like-named read-outs stand apart in the source and are kept apart here. No constants are given. Whether binding was seen depends on the method and setting. In cells and extracts the contact can be indirect. Some results given as binding are weak or reduced against the parent protein; the word gives no strength. For part of these data: Tags and fused reporters may be left off the sequences shown.

Chains of the proteins cited; added tags and fusions are not shown.
UniProt O75376: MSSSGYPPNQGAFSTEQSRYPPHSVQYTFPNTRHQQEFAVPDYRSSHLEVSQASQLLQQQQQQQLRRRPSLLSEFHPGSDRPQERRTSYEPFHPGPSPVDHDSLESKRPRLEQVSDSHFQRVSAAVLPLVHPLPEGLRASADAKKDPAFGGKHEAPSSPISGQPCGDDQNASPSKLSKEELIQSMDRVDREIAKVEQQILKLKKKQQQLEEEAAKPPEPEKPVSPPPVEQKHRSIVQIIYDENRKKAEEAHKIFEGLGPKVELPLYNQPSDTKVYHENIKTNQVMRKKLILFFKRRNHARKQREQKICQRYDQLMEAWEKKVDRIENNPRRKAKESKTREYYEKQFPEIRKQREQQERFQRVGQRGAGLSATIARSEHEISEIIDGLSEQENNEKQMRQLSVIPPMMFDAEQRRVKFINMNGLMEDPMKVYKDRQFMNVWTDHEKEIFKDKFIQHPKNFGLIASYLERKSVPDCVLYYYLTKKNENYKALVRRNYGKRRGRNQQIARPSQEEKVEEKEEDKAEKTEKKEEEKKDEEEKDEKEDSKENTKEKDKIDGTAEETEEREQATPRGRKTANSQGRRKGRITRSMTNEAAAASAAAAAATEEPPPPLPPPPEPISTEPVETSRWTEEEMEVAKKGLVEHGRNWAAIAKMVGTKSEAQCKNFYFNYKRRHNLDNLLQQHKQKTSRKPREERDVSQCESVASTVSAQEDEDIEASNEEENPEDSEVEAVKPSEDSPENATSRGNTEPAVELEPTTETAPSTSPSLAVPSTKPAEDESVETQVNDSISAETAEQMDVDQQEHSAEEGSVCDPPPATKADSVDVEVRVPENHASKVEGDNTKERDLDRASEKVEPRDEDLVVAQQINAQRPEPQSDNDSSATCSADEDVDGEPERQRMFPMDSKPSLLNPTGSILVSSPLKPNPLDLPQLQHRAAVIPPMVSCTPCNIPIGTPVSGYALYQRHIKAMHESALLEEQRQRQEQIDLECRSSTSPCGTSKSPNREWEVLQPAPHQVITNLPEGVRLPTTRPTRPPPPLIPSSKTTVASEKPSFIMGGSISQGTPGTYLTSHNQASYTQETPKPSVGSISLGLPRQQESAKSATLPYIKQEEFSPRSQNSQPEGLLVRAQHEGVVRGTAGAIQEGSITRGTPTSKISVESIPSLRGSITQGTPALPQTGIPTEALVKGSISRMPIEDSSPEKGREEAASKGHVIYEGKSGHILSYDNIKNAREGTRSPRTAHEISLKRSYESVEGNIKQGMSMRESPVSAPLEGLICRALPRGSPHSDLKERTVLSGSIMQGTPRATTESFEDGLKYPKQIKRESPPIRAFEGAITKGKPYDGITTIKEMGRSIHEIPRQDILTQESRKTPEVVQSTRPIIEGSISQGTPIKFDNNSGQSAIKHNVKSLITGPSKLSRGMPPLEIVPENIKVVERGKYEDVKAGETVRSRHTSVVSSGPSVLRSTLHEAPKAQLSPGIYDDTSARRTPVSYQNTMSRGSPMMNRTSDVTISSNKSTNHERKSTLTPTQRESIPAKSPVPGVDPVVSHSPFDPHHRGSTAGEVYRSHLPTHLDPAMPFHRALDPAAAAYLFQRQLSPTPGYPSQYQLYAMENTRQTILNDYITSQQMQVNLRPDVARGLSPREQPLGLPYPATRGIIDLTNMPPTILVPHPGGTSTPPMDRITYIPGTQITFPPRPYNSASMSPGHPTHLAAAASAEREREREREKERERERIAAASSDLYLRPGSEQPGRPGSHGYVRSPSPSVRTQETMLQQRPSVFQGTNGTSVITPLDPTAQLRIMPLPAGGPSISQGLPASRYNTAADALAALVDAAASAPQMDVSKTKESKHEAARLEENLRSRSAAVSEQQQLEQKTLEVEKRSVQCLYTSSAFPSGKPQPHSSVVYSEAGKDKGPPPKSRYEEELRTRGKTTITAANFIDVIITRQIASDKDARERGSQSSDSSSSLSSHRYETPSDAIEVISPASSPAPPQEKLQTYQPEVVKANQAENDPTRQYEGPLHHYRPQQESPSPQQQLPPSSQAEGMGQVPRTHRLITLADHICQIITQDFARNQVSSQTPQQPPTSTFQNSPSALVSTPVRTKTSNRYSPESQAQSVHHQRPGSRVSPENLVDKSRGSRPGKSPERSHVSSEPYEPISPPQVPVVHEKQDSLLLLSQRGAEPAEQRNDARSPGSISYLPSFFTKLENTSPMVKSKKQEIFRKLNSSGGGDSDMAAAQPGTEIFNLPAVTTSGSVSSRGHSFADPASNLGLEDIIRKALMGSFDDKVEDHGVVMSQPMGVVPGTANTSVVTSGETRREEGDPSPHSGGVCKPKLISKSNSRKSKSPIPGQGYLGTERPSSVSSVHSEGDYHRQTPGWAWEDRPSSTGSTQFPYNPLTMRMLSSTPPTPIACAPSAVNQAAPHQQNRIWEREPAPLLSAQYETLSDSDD
UniProt Q13227: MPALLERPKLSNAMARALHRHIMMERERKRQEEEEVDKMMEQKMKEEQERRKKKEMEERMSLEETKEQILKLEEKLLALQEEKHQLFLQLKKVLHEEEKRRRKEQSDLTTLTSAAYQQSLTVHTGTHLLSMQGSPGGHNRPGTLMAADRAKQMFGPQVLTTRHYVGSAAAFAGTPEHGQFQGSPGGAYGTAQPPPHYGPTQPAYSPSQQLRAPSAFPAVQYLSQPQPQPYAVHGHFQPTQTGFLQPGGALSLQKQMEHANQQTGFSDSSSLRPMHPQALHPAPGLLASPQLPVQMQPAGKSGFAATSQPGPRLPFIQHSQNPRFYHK

T1: Flag-tagged PPARα (peroxisome proliferator-activated receptor α, NR1C1) (UniProt Q07869)
T1 sequence: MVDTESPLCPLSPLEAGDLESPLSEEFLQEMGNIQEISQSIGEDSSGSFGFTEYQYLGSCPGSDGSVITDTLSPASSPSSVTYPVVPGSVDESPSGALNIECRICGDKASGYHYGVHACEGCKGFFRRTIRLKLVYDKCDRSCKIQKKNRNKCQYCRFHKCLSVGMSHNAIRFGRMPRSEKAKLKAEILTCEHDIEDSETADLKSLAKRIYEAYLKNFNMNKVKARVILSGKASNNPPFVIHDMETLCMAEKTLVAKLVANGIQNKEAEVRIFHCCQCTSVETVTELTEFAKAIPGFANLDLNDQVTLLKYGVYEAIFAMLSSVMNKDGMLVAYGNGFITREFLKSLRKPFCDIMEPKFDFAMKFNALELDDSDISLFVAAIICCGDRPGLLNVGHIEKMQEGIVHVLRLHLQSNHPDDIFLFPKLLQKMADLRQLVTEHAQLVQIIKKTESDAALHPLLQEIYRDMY


Tests used:
[1] = molecular target: Flag-NCOR (nuclear receptor corepressor) (UniProt O75376); assay: co-IP; HEK293 co-transfected with HA-PPARα and Flag-NCOR, without or with WT or truncated HA-GPS2; lysed 48 h after transfection; lysate incubated with anti-Flag on protein A magnetic beads for 3 h at 4 °C; five washes with lysis buffer; blotted with anti-Flag or anti-HA
[2] = molecular target: T1, Flag-tagged PPARα (peroxisome proliferator-activated receptor α, NR1C1); assay: co-IP; HEK293 co-transfected with WT or truncated HA-GPS2 and Flag-PPARα; lysed 48 h after transfection; lysate incubated with anti-Flag on protein A magnetic beads for 3 h at 4 °C; five washes with lysis buffer; blotted with anti-Flag or anti-HA
[3] = molecular target: Flag-NCOR (nuclear receptor corepressor) (UniProt O75376); assay: co-IP; HEK293 co-transfected with HA-PPARα and Flag-NCOR, without or with WT or truncated HA-GPS2; lysed 48 h after transfection; lysate incubated with anti-Flag on protein A magnetic beads for 3 h at 4 °C; five washes with lysis buffer; blotted with anti-Flag or anti-HA; remark: listed apart in the source

| binding [1] | binding [2] | binding [3] | Molecule |
| --- | --- | --- | --- |
| binds | binds |  | HA-GPS2 (G protein pathway suppressor 2), WT, full-length (from UniProt Q13227 1-327) |
|  |  | binds | HA-PPARα (peroxisome proliferator-activated receptor α, NR1C1) (protein, UniProt Q07869 1-468) MVDTESPLCPLSPLEAGDLESPLSEEFLQEMGNIQEISQSIGEDSSGSFGFTEYQYLGSCPGSDGSVITDTLSPASSPSSVTYPVVPGSVDESPSGALNIECRICGDKASGYHYGVHACEGCKGFFRRTIRLKLVYDKCDRSCKIQKKNRNKCQYCRFHKCLSVGMSHNAIRFGRMPRSEKAKLKAEILTCEHDIEDSETADLKSLAKRIYEAYLKNFNMNKVKARVILSGKASNNPPFVIHDMETLCMAEKTLVAKLVANGIQNKEAEVRIFHCCQCTSVETVTELTEFAKAIPGFANLDLNDQVTLLKYGVYEAIFAMLSSVMNKDGMLVAYGNGFITREFLKSLRKPFCDIMEPKFDFAMKFNALELDDSDISLFVAAIICCGDRPGLLNVGHIEKMQEGIVHVLRLHLQSNHPDDIFLFPKLLQKMADLRQLVTEHAQLVQIIKKTESDAALHPLLQEIYRDMY |
